Test results taken from patent US20240115742A1, “FLUORINATED FIBERS FOR MULTIMODAL 1H AND 19F MRI, ULTRASOUND, FLUORESCENCE DETECTION AND CONFORMATIONAL AND TEMPERATURE DETECTION BY 19F MRS” (New York University, priority 2022, published 2024).

Legend:
[1] = Phantom 19F MRS on 7-T MRI scanner; settings: 7-T, 19F
[2] = Circular dichroism wavelength scans; type: physicochemical; settings: for θ208 / θ222: 15 μM, 4 °C
[3] = ATR-FTIR peak deconvolution of secondary structure; type: physicochemical; settings: 2 mM
Description: Attenuated Total Reflectance-Fourier Transform Infrared Spectroscopy. Secondary structure of protein fiber variants was confirmed using attenuated total reflectance-Fourier transform infrared (ATR-FTIR) spectroscopy using the Nicolet 6700 Fourier Transform Infrared Spectrometer equipped with a diamond ATR accessory and a mercury cadmium telluride (MCT)-A detector. Spectra were collected for 5 μL of 500 μM protein from 4000-400 cm^−1 with 0.5 cm^−1 increments at room temperature (RT). For CCM bound protein, protein was bound at a final concentration of 500 μM and saturated with CCM as determined by fluorescent spectroscopic drug binding with a final 1% v/v DMSO. Sample spectra were normalized using buffer background and analyzed from 1700-1600 cm^−1 corresponding to the amide I region. Peaks were deconvoluted using Gaussian functions in PeakFit software until the goodness of fit reached r^2≥0.99. Peaks were associated with secondary structure were determined by methods known in the art.
(§1) Attenuated Total Reflectance-Fourier Transform Infrared Spectroscopy. Secondary structure of Q2 protein was confirmed using attenuated total reflectance-Fourier transform infrared (ATR-FTIR) spectroscopy using the Nicolet 6700 Fourier Transform Infrared Spectrometer equipped with a diamond ATR accessory and a mercury cadmium telluride (MCT)-A detector. Spectra were collected for 5 μL of 2 mM protein from 4000-400 cm^−1 with 0.5 cm^−1 increments. Sample spectra were normalized using buffer background and analyzed from 1700-1600 cm^−1 corresponding to the amide I region. Peaks were deconvoluted using Gaussian functions in PeakFit software until the goodness of fit reached r^2>0.99.
as §1, with “of Q2LTF and QLTF” for “of Q2”, “using a” for “using the”, “of 1” for “of 2”, “with 4.0” for “with 0.5”, “reached r^2≥0.99.” for “reached r^2>0.99.”
Attenuated Total Reflectance-Fourier Transform Infrared Spectroscopy. Secondary structure before (solution) and after gelation (gel) was also assessed by peak deconvolution of attenuated total reflectance-Fourier transform infrared (ATR-FTIR) spectra. ATR-FTIR measurements were performed using a Nicolet 6700 Fourier Transform Infrared Spectrometer equipped with a mercury cadmium telluride (MCT)-A detector. Spectra were collected for 5 μL samples of protein at 2 mM from 4000-400 cm^−1 with a 4.0 cm^−1 resolution, normalized, and buffer-subtracted prior to analysis from 1700-1600 cm^−1, corresponding to the amide I region. ATR-FTIR measurements were performed immediately after concentration to 2 mM for solution measurements and after. Peaks were deconvoluted using Gaussian functions in PeakFit software until the goodness of fit reached r^2≥0.99.

[4] = Passive microrheology (multiple particle tracking); type: physicochemical; settings: 2 mM, 4 °C
Description: Microrheology. Protein was concentrated to 2 mM, as measured by BCA assay, and immediately aliquoted 27.7 μL into a 200 μL PCR tube. 1% v/v (or 0.3 μL) of […] red polystyrene fluorometric beads (FluoSpheres) were then added to the sample. A glass capillary tube was then loaded with sample by capillary action and sealed to prevent evaporation while being affixed to a microscopy slide using two-component fast-curing epoxy (JB Weld). Samples were then imaged at 0 h as a starting measurement and then every 12 h using a Leica DMI4000b inverted microscope equipped with a Leica DFC310 FX 1.4 megapixel camera at 40× magnification with 2×2 binning. Between imaging, slides were incubated on a rotisserie at 8 rpm to prevent sedimentation of the fluorometric beads. Each image series was recorded for a total of 300 frames with a lag time (i) of 0.037 s between each frame. Relaxation exponents i.e. the logarithmic slopes of particle mean-squared displacements (MSDs) with respect to lag time as determined by multiple particle tracking (MPT) analysis were used to determine when equilibration of the hydrogel was complete and measurements were no longer recorded (60 h in this case). Images were stacked and converted to grayscale in MATLAB (Mathworks, R2021a) using code developed in-house, with MPT then being employed using MATLAB code developed and modified by Dufresene, Kilfoil, Blair, and O'Neill as described previously.
Gelation kinetics of the hydrogels were assessed using passive microrheology (FIG. 61a-e). Time to gelation was measured immediately after concentration to 2 mM at 4° C. by incubating with 1 μm fluorescent tracer beads added to the protein in solution state at a final concentration of 1% (v/v). […] Mean square displacements (MSDs) of bead trajectories were analyzed periodically per the span of respective protein gelation times. An initial MSD-τ curve corresponding to a solution at 1.00 μm^2 s^−1 (consistent with Brownian motion) was used as the master solution curve and the final MSD-τ curve measured per protein gelation was selected as the master gel curve. Intermediate MSD-τ curves measured were superimposed onto either the master solution or master gel curve using horizontal and vertical shift factors, a and b, respectively. The window of sol-gel transition was determined between where a divergence in superposition occurred for each protein gelation.
Microrheology. Microrheology was used to assess gelation kinetics as described previously. Immediately after concentration to 2 mM, 29.7 uL were aliquoted with 0.3 uL of 1 um diameter FluoSpheres and loaded into glass capillary tubes (VitroCom). Samples were then imaged using an inverted fluorescent microscope (ZEISS Microscopy) at 40× magnification with 2×2 binning. Samples were incubated at 4° C. on a rotisserie at 8 rpm between measurements and imaged incrementally at select time points. […] Images were stacked, converted to greyscale, and analyzed with multiple particle tracking (MPT) in MATLAB (Mathworks, R2021a). Prior to other experiments of hydrogels in the gel state, microrheology here was used to confirm its complete transition.

| Compound | concentration reaching limit of detection (LOD 5.3) [1] | θ222/θ208 ([2]; Gel) | θ208 ([2]; Gel) | θ222 ([2]; Gel) | θ208 ([2]; Solution) | θ222 ([2]; Solution) | MRE minimum at 208 nm ([2]; solution) | MRE minimum at 222 nm ([2]; solution) | θ222/θ208 ([2]; solution) | Turns/Coils (%) ([3]; Gel) | α-helix (%) ([3]; Gel) | β-sheet(%) ([3]; Gel) | Turns/Coils (%) ([3]; Solution) | α-helix (%) ([3]; Solution) | β-sheet(%) ([3]; Solution) | critical gelation time, tc (tgel) [4] | critical relaxation exponent, nc [4] |
| --- | --- | --- | --- | --- | --- | --- | --- | --- | --- | --- | --- | --- | --- | --- | --- | --- | --- |
| O=C(O)C(F)(F)F [TFA, trifluoroacetic acid, reference compound] | 130 µM |  |  |  |  |  |  |  |  |  |  |  |  |  |  |  |  |
| Q7: Q hydrogel variant from trimodal Monte Carlo search, SEQ ID NO: 16 (MRGSHHHHHHGSIEGRVKEMTFIKKTIEQQAEEMKEINKAIHDIRHALENISKK) [Protein Q7] |  | 1.2 ± 0.1 | −16,000 ± 2,000 mdeg · cm^2 · dmol^−1 | −15,000 ± 1,000 mdeg · cm^2 · dmol^−1 | −16,000 ± 1,000 mdeg · cm^2 · dmol^−1 | −15,000 ± 1,000 mdeg · cm^2 · dmol^−1 | −15,700±1,000 deg cm^2 dmol^−1 | −15,000±1,200 deg cm^2 dmol^−1 | 1.0 ± 0.0 | 29.4 ± 6.8% | 32.9 ± 6.3% | 37.6 ± 4.4% | 27.0 ± 8.5% | 27.8 ± 7.8% | 40.6 ± 16.0% | 37.1 ± 0.1 h and ~37 h | 0.58 ± 0.0 |

“And” between values parts separate entries of the source, which are not always exact repeats. Equal entries are not always repeated. Structures can show the parent of a compound that is named as a salt.
